From PubChem BioAssay AID1688 (National Center for Advancing Translational Sciences (NCATS), 2009)
In all, about 220,000 compounds went through this assay and about 2,400 (1.1%) were called active. The shares of active, inactive and inconclusive entries below differ from those in the screen. Calls follow the shape of the dose curve; as a rule, active = well fitted inhibition curve with a large enough effect; inconclusive = small, poorly fitted or top-dose-only effect, or effect the other way; inactive = no such curve, though single readings can be large or run the other way. Potencies beside an inconclusive call are fits to weak or partial responses and may not hold up.

Assay: qHTS Multiplex Assay to Identify Dual Action Probes in a Cell Model of Huntington: Aggregate Formation (GFP); also: nearly all actives have a fitted effect of over 60% in size
Conditions: PC12 HttQ103-GFP aggregates, Acumen cytometry, 40 h; activity change, negative = inhibition: at 46.1 µM (top of the series) unless noted
Outline: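 Aggregates are detected as GFP objects 1–25 µm with signal 6 STDEV over background in lysates of induced PC12 cells. These carry Huntingtin exon 1 with 103 glutamines fused to GFP under an ecdysone promoter; compounds titrated.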
% is scaled to controls: 0 for no effect and ±100 for the full control effect; potency is read from the fitted curve at half-maximal effect.

Structure (SMILES)	Potency	activity change, negative = inhibition
CCC1C/C(=C/c2ccco2)C(=O)/C(=C/c2ccco2)C1 (configuration not stated)	inconclusive: 12.6 µM [activator, single point]	–
CN(Cc1ccccc1)S(=O)(=O)c1ccc(NS(=O)(=O)Cc2ccccc2)cc1	inconclusive: 17.8 µM [inhibitor, single point]	–
Cc1ccc(OCC(=O)NC2CC(C)(C)NC(C)(C)C2)c(C)c1	inconclusive: 3.16 µM [activator, single point]	–
CC(=O)C1=C(c2ccc(Br)cc2)C(=O)c2ccccc2C1=O	active: 5.01 µM	–
N#CC1=C(N)SC(N)=C(C#N)C1CCC1CCCCC1	active: 0.891 µM	–
Cc1ccc(CC(=O)OCC(=O)NC2CCCC(C)C2C)cc1C (configuration not stated)	–	inactive: -6.21%
COC1=Cc2c(ccc3ccc(=O)oc23)OC1(C)C	–	inactive: -20.5%
COc1ccc(C(=O)C[N+]2(C)CCOCC2)cc1	–	inactive: -5.8%
Oc1ccc(N=Cc2ccc(-c3cccs3)s2)cc1	inconclusive: 35.5 µM [activator, single point]	–
CCOC(=O)c1sc(NC(=O)CSc2n[nH]c(-c3ccncc3)n2)c(C#N)c1C	active: 7.08 µM	–
CC(C)CN=C(NS(=O)(=O)c1ccccc1)C(Cl)(Cl)Cl	inconclusive: 35.5 µM [inhibitor, single point]	–
Nc1cc(-c2ccc(Cl)cc2)nn1S(=O)(=O)c1cccc2nsnc12	inconclusive: 22.4 µM [inhibitor, partial curve]	–
O=C(Nc1ccccc1N1CCCCC1)c1ccccc1F	inconclusive: 11.2 µM [inhibitor, partial curve]	–
O=[N+]([O-])c1cc(S(=O)(=O)N2CCCCCC2)ccc1F	inconclusive: 35.5 µM [inhibitor, single point]	–
O=C(Cc1ccc(Br)cc1)N1CCN(c2ccccc2O)CC1	inconclusive: 3.98 µM [activator, single point]	–
COc1ccc(-c2cc(C(F)(F)F)nc(SCC(=O)Nc3sc4c(c3C#N)CCC4)n2)cc1	inconclusive: 11.2 µM [activator, partial curve]	–
CC1(c2ccc(Cl)cc2Cl)OCC(Cn2ccnc2)O1 (configuration not stated)	inconclusive: 11.2 µM [inhibitor, partial curve]	–
O=C(O)c1ccc2c(c1)C1C=CCC1C(c1ccncc1)N2 (configuration not stated)	–	inactive: -27.4% [at 9.22 µM]
CCc1ccc(O)c(N=Cc2cccc(C)c2O)c1	inconclusive: 25.1 µM [activator, single point]	–
CN(CCC#N)C(=O)COC(=O)c1c2c(nc3ccccc13)/C(=C/c1ccco1)CC2	–	inactive: 6.06%
CCOc1ccc2nc(NC(=O)c3ccoc3C)sc2c1	inconclusive: 35.5 µM [inhibitor, single point]	–
O=C(NCCc1ccccc1)C(=S)N1CCCCC1	–	inactive: 5.69% [at 9.22 µM]
Cc1ccc(C(=O)O/N=C/c2c(C(F)(F)F)nn(C)c2Sc2ccc(Cl)cc2)cc1	active: 12.6 µM	–
CNC(=S)Nc1ccc2nc(C)oc2c1	–	inactive: -4.44%

Single entries from the entries so far:
For Potency, COc1ccc(-c2cc(C(F)(F)F)nc(SCC(=O)Nc3sc4c(c3C#N)CCC4)n2)cc1 shows inconclusive: 11.2 µM [activator, partial curve]
For Potency, CCC1C/C(=C/c2ccco2)C(=O)/C(=C/c2ccco2)C1 (configuration not stated) shows inconclusive: 12.6 µM [activator, single point]

Going on with the list.

Structure (SMILES)	Potency	activity change, negative = inhibition
CCCCCCCNC1=CC(=O)CC(c2ccco2)C1 (configuration not stated)	inconclusive: 35.5 µM [inhibitor, single point]	–
COc1ccccc1N1CCN(C(=O)CSc2nnc3n2C(C)(C)Cc2ccccc2-3)CC1	inconclusive: 11.2 µM [inhibitor, partial curve]	–
COc1cc2c(C(=O)N3CCN(C4CCCCC4)CC3)cn(CC(C)C)c(=O)c2cc1OC	inconclusive: 7.08 µM [activator, partial curve]	–
Cc1[nH]nc2c1/C(=N/O)CC(c1ccccc1)C2 (configuration not stated)	active: 12.6 µM	–
COc1ccc(CN2C3CCCC2CC(NC(=O)Nc2ccccc2C)C3)cc1 (configuration not stated)	–	inactive: 20.9%
CC1Cc2ccccc2N1C(=O)CN(C)S(=O)(=O)c1cccc2cccnc12 (configuration not stated)	active: 0.0316 µM	–
O=C(O)CC(Sc1n[nH]c(=S)s1)C(=O)O (configuration not stated)	–	inactive: -7.53% [at 9.22 µM]
COc1ccc(/C(O)=C2/C(=O)C(=O)N(c3ncccn3)C2c2ccc(OC)c(OC)c2)cc1 (configuration not stated)	inconclusive: 0.1 µM [inhibitor, partial curve, poor fit]	–
Cc1ccc(Cl)cc1NC(=S)N(CCCN1CCOCC1)Cc1ccco1	–	inactive: 13.3%
CC(=O)c1cc(-c2ccccc2)n(CC(=O)N2CCN(C3CCCC3)CC2)c1C	inconclusive: 0.562 µM [inhibitor, full curve]	–
C/C(=N/Nc1cc(-c2ccccc2)nc(-c2ccccc2)n1)c1ccc(O)cc1	active: 35.5 µM	–
Cc1ccc(SCCC(=O)NCC2CCCO2)cc1 (configuration not stated)	inconclusive: 0.501 µM [inhibitor, partial curve]	–
COc1ccc(-c2ccc(SCC(=O)Nc3nnc(C)s3)nn2)cc1	inconclusive: 0.355 µM [activator, full curve, poor fit]	–
Fc1ccc(-c2csc3ncnc(N4CCc5ccccc5C4)c23)cc1	inconclusive: 35.5 µM [inhibitor, single point]	–
CC(=O)c1ccc(N2CCN(c3ccc(S(=O)(=O)NCCN(C)C)cc3[N+](=O)[O-])CC2)cc1	–	inactive: -13.7% [at 9.22 µM]
O=C(/C=C/c1cn(CC(O)CN2CCOCC2)c2ccccc12)c1cccs1 (configuration not stated)	–	inactive: 1.99% [at 9.22 µM]
Cc1ccccc1N(CC(=O)N/N=C/c1cc(C)n(-c2ccccc2C)c1C)S(C)(=O)=O	active: 17.8 µM	–
Cc1cc(C(=O)c2ccccc2)c(NC(=O)CCl)s1	inconclusive: 35.5 µM [activator, single point]	–
CC(=O)Nc1ccc(NC(=O)CSc2nnc(-c3ccc(NS(C)(=O)=O)cc3)n2C)cc1C	inconclusive: 1.26 µM [inhibitor, single point]	–
Cc1cc(C(C)(C)C)ccc1OCCn1ccnc1	inconclusive: 25.1 µM [inhibitor, single point]	–
COc1c(Cl)cc(C(=O)Nc2ccccc2C(=O)O)cc1Cl	inconclusive: 35.5 µM [inhibitor, single point]	–
CC1CN(S(=O)(=O)c2ccc(C(=O)Nc3nnc(-c4ccccn4)o3)cc2)CC(C)O1 (configuration not stated)	–	inactive: -7.64%
COc1ccc(OC)c(S(=O)(=O)Nc2ccc(C(N)=O)cc2)c1	–	inactive: 11.5%
